According to patent US7045550B2, “Polyamines and analogs for protecting cells during cancer chemotherapy and radiotherapy” (Wisconsin Alumni Research Foundation, priority 2001, dated 2006):
Some of these results come from one statement about several compounds together.

Tested on: rat pups challenged with cytoxan
Test: Cytoxan (CTX)-induced alopecia model in rat pups, topical polyamine effector
Type: in vivo, Sprague Dawley rat
Details: Example 1, at the concentrations shown in Table 1
Method: Induction of alopecia by cytoxan (CTX). Lactating Sprague Dawley mother rats with rat pups were purchased from Harlan Sprague Dawley (Indianapolis, Ind.). The mother rats were given food and water ad libitum. The rats pups were tested in the model of chemotherapy-induced alopecia described by Hussein A. M. et al., Science: 249, 1564 (1990). Cytoxan (CTX), a chemotherapeutic widely used in the treatment of cancer, was used to induce alopecia in the rats. A common side effect of cytoxan in patients is alopecia. Cytoxan and polyamine effector compounds were purchased from Sigma Chemicals Co. (St. Louis, Mo.). To produce CTX-induced alopecia, 7 to 10 day old rat pups were injected i.p. with 35 mg/kg of CTX prepared in phosphate-buffered saline. To produce reproducible CTX induced alopecia, we first tested several concentrations (35, 40, 45 ug/gm body weight) of CTX in phosphate-buffered saline (PBS), which was injected i.p. in 7–10 day old pups. Seven to ten days after CTX treatment the pups were examined to determine the degree of hair loss. The density of hair on the pups was then determined. […]
Approximately 7 to 10 days after CTX treatment, the pups were evaluated for alopecia. Hair loss was evaluated using a modified alopecia-scoring index described by Chen G. et al., Int. […]
Induction of alopecia by cytoxan (CTX). […] The density of hair on the pups was then determined. […]

Compound: NCCCNCCCN [Norspermidine]
- alopecia scores (range given): 2.0–2.5
